Source: PubChem BioAssay AID1347423 (Functional Genomics Laboratory (NCATS/FGL), 2020)
Screen size: about 52,000 sequences; about 210 (0.4%) were called active.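 Rule for the calls: active = gene whose silencing raises cell survival under the drug, median off-target-corrected z-score across its silencing RNAs 2 or more; inactive = the rest.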 The list shows a part of the results.

Experiment: Resistance to Poly (ADP-Ribose) Polymerase inhibitor: Gene Identification via Genome-wide siRNA Screen
Details: mouse BRCA2 R2336H ES cells, olaparib, CellTiter-Glo viability; stronger effect = higher value
Outline: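 Mouse BRCA2 R2336H ES cells were reverse-transfected with siRNA (20 nM final), treated at 48 h with 500 nM olaparib, and read by CellTiter-Glo after 72 h. Scores: MAD-based z per siRNA, median per gene, seed off-target correction.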

Sequence	z-score
GCCACUUAACCUUCAAAAGTT against BC048502	inactive: -0.052
GCUUGUUCACGGACAAGAATT against 2210023C10Rik	inactive: 1.05
GGAAAUCACUGCACUGGCUTT against Actc1	inactive: 0.256
GGAUAGCACAGCCCUACAUTT against Kcns1	inactive: -1.3
GGACAAAAAAAUAGAAGGATT against Rrbp1	inactive: -1.53
GGAUCUAUCUCUAGUCCCGTT against Zfp358	inactive: -0.659
GCCCAGAUCAAUUUGAGCGTT against Tcfcp2l3	inactive: 0.76
GGGUCAAGGUAGUAGUACCTT against Tob1	inactive: -0.794
GGCUUAGAGUCAUCUUUAATT against Mgea6	inactive: -0.149
GAGAAAACAUGACCUGGGUTT against Olfr456	inactive: -0.0694
CCAUGGUCAUCCCGAUGUUTT against Olfr1454	inactive: -1.97
CCGGUUCGUUCAGAAGGAGTT against 2610024A01Rik	inactive: -2
GGAAGACACUGGUUUCCAATT against 1700067P10Rik	inactive: 1.01
CCUUCUCUGCCUCGAUGAUTT against 2310016M24Rik	inactive: -0.0938
GCUAAUCUUCCACUUGUAATT against 2610318I01Rik	inactive: -0.625
GCAGAAGUGUCAAUAAAACTT against Synj2	inactive: -0.0373
GGCGCAUGUUCACAAAGUGTT against Npc1	inactive: -0.637
CCUACAAGCAGAGUACAAUTT against Myo10	inactive: 0.323
GGCGGUGCAGUUCUGUAAATT against Kif18a	inactive: -0.737
GGAUAACUGCUUCAUUUCCTT against D430020F16	inactive: 0.375
CCGUGGCAUGUUCAUGAAATT against Mpg	inactive: 1.19
CCAGUAGCACGUGUUAUUUTT against RbmY1a1	inactive: 0.193
GCCGCCAUGGACUUACAAGTT against Stim2	inactive: -0.161
GCAUGGAAAAAGGCUUUGATT against Olfr91	inactive: -0.69
GGUUUUCAUGGUUAUCUGATT against Nrgn	inactive: -0.103
GUACCUCUUCUCUAUCACUTT against Pla2g2e	inactive: -0.622

Sequence	z-score
GGAAGAUUUGUUCUAUACUTT against Epgn	inactive: 0.394
CGAAAAGAAGUGUUUCCUGTT against Lamb2	inactive: 0.531
GGUGUCUGGCAAGUACAAATT against 1810010M01Rik	inactive: 1.58
GGAACCUUACUCAUGUCCCTT against Tlr6	inactive: -0.62
GGACGAAGACACCAAAGUGTT against Camk2a	inactive: -0.85
GCCACUUACCCUUUCAGGCTT against Nfe2	inactive: -0.267
GCAGGUUCACAAUGGAUUATT against Lrrc25	inactive: 0.916
GGACAAAUGGGUAUUAUCUTT against Phxr4	inactive: -0.542
CCGACUUUGCCAGGAUUUCTT against Fbxl7	inactive: 0.636
GCAGGUUAGACCAUGGCUATT against Diras2	inactive: 1.07
GGACACAAAGGAAUCUCUUTT against Olfr374	inactive: -2.22
CCACUAUUCUUAACUUGGCTT against Hdac7a	inactive: 1.6
GCUUGUGCCGGAUAAAGGUTT against Gng3	inactive: -0.952
CCAAAUCGCUUCACAUAAUTT against Atp6v1g2	inactive: -1.14
GGAUCUGAAACAAAAACACTT against Slc8a3	inactive: 0.29
GGCGACUCCAUCUAAACAATT against Slitrk5	inactive: 0.518
CCAUUCCGGUUACUUUCGATT against Hspb1	inactive: -0.563
CCCAAUGAUCCUAACCAUUTT against Zfp459	inactive: 1.38
GGGAUGAGUCUUUAAAAUCTT against 4930417G10Rik	inactive: -0.263
GGGAUCCUUAAUAUUUUGATT against Dazap2	inactive: 0.012
CCUCACCCUUUCCAAAAAATT against 1810060D16Rik	inactive: 1.35
CGACCUGACUUUUCUUAGGTT against Dncl2b	inactive: -0.14
GGAUGUUACCUUGGUGGGUTT against Olfr1323	inactive: -2.02
GCAUCAGAUAGAGAUUGCUTT against C730036D15Rik	inactive: -1.95
GGCUUUUAAGUUCAUCGCATT against 2810012G03Rik	inactive: -0.859
GCAAGUCUCUGCGCUAUUATT against 4931417E11Rik	inactive: -1.38

Taken from the results shown (four entries):
Sequence	z-score
GGAACCUUACUCAUGUCCCTT against Tlr6	inactive: -0.62
GGACGAAGACACCAAAGUGTT against Camk2a	inactive: -0.85
GCCACUUACCCUUUCAGGCTT against Nfe2	inactive: -0.267
GCAGGUUCACAAUGGAUUATT against Lrrc25	inactive: 0.916
